This assay is described as follows: qHTS Assay for Lipid Storage Modulators in Drosophila S3 Cells.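 For cell number change: cells counted by Cell Tracker Red CMTPX staining in the red channel.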 As to conditions: BODIPY lipid droplet fluorescence, 18-24 h; for cell number change: measured here: cell count max response, cells fed with added oleic acid. In a few lines:
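Laser-scanning cytometry quantifies lipid droplet accumulation (500–530 nm total intensity; droplet/cell object ratio) in oleic acid-fed (400 uM added) Drosophila S3 cells treated with a concentration series. 20 uM Triacsin C defined 100% inhibition.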
(In general: qHTS replaces the single test concentration by a dilution series.)

Setting [1] is: measured here: cell number channel AC50, cells fed with added oleic acid.
[2] abbreviates: measured here: lipid fluorescence (Fed channel) AC50, cells fed with added oleic acid.

Some of the results follow. These are further read-outs of the screen, such as a control signal, another cell line or another target. No call is given for them. The list favours compounds with an active or inconclusive main result. Words in brackets tell the shape of the fitted curve; partial curves, single points and poor fits give uncertain potencies.

On to `CC(C)C[C@H](NC(=O)[C@@H]1Cc2c([nH]c3ccccc23)C2c3ccccc3C(=O)N21)C(=O)NCC1CCCO1` (stereo partly specified), for which the cell number change is -3.24%.
What is called AC50 is the midpoint of the concentration-response curve, whichever way the signal moves. Read a high AC50 as activity only at high concentration. For the molecule `COc1ccc(-c2noc(CSc3nc4ccccc4c(=O)n3-c3ccccc3)n2)cc1OC`, the cell number change worked out at 125%. The AC50 under setting [1] was 7.31 µM [rising, partial curve]. Besides, the AC50 under setting [2] is 7.31 µM [rising, partial curve].
For the molecule `COc1ccc(C(=O)N2CCC(n3c(C)nc4cc(F)ccc43)CC2)cc1`, the cell number change is 4.73%. The AC50 under setting [1] was 0.651 µM [rising, single point]. Further, the AC50 under setting [2] is 0.731 µM [rising, single point].
`CCOC(=O)/C(C)=N/Nc1nc(-c2ccc(NC(C)=O)cc2)cs1`: the cell number change is -15.2%. For the same molecule, the AC50 under setting [2] is 29.1 µM [falling, single point].
On to `COC(=O)c1ccc(COC(=O)CCS(=O)(=O)c2ccc(C)cc2)cc1`, for which the cell number change is 3.5%. Further, the AC50 under setting [1] is 6.51 µM [rising, single point].
Turning to `CCCC(=O)NNC(=O)CC(=O)Nc1ccccc1C(=O)O`, the cell number change was -16.9%. In addition, the AC50 under setting [2] is 1.3 µM [falling, full curve].
As for `CC(NC(=O)c1cccnc1)c1ccc2c(c1)OCO2` (stereo unspecified), the cell number change was determined as 44.7%. For the same molecule, under setting [1], the AC50 was 0.326 µM [rising, full curve]. The AC50 under setting [2] was 8.2 µM [rising, partial curve].
For `COc1ccc([N+](=O)[O-])cc1NC(=O)CC1SC(=Nc2cccc(C)c2C)N(/N=C/c2cccc(OC)c2OC)C1=O` (stereo unspecified), the cell number change is 32.2%.
As to `CCc1cc2c(SCC(=O)NC3CCS(=O)(=O)C3)ncnc2s1` (stereo unspecified), the cell number change was -39.2%. The AC50 under setting [1] is 0.184 µM [falling, full curve, poor fit]. Further, the AC50 under setting [2] was 0.58 µM [falling, full curve].
`O=S1(=O)NC(c2ccccc2)CC(CC2CCCCC2)O1` (stereo unspecified): the cell number change is -13.2%. Further, under setting [2], the AC50 is 3.26 µM [rising, single point].
Turning to `COC(=O)Nc1ccccc1C(=O)N1CCCCC1`, the cell number change was -64.6%. Under setting [1], the half-maximal activity concentration (AC50) is 29.1 µM [falling, single point]. In addition, the AC50 under setting [2] is 29.1 µM [falling, single point].
In the case of `CCc1ccccc1NS(=O)(=O)c1ccc2c(c1)C(C)(C)C(=O)N2C`, the cell number change was -9.22%.
On the same count and under the same terms, then `COc1ccc(C(=O)NNC(=O)C(=O)NC2CCCCC2)cc1`, with -17.9%.
Consider `CN(C)/C=C1\Cc2ccccc2C1=O`, for which the cell number change was 67.7%. Further, under setting [1], the AC50 was 0.00461 µM [rising, full curve, poor fit].
In the case of `CCOC(=O)C1=C2N(C)c3ccccc3N2CCC1=O`, the cell number change was -40.2%. In addition, the half-maximal activity concentration (AC50) under setting [1] is 0.259 µM [falling, full curve, poor fit]. Further, the concentration at half-maximal activity (AC50) under setting [2] was 3.66 µM [falling, full curve].
For `COC(=O)c1cn(C(=O)c2ccc(Cl)cc2)c2ccccc12`, the cell number change turned out to be 19.2%. In addition, the AC50 under setting [2] was 9.2 µM [rising, partial curve, poor fit].
Consider `Cc1[nH]c2ccccc2c1SCCNC(=O)c1ccc(Br)o1`, for which the cell number change is -20%. For the same molecule, under setting [2], the AC50 is 18.4 µM [falling, single point].
As for `O=C1OC(/C=C/c2ccccc2)=NC/1=C/c1ccco1`, the cell number change is -6.94%. The AC50 under setting [1] was 0.0058 µM [falling, full curve, poor fit].
Take `Cc1csc(SCC(=O)N2CCCC2)n1`: the cell number change is -4.67%. For the same molecule, the AC50 under setting [2] is 3.26 µM [falling, partial curve].
`COc1ccc(N(C(=O)COc2ccc(C)cc2)S(=O)(=O)c2ccc(C)cc2)cc1`: the cell number change is 84%. In addition, the AC50 under setting [1] was 29.1 µM [rising, single point]. The AC50 under setting [2] was 0.731 µM [falling, single point].
As for `COc1ccc(-n2c(C)cc(/C=C3\C(=O)NN(c4ccccc4)C3=O)c2C)cc1`, the cell number change is 13.2%.
On to `CC(C)(Oc1ccc(Cl)cc1)C(=O)NC1CCN(Cc2ccccc2)CC1`, for which the cell number change worked out at 0.803%.
For `COCCNC(=S)N(C)C1(c2ccccc2Cl)CCCCC1=O` (stereo unspecified), the cell number change came out at 19.5%. The AC50 under setting [2] is 5.17 µM [rising, partial curve].
Regarding `CC(=O)N(Cc1ccccc1)c1ncc2c(n1)c(=O)c(C#N)c1ccccn12`, the cell number change turned out to be 49.5%. Also, the AC50 under setting [1] is 0.731 µM [rising, partial curve]. Also, the AC50 under setting [2] was 0.184 µM [rising, full curve, poor fit].
As to `CCN(CC(=O)NCc1ccc(Cl)cc1)C(=O)CCc1ccccc1`, the cell number change came out at 20.8%.
On the same count and under the same terms, then `Cc1ccccc1OC1C(=O)N(CC2CCCO2)C1c1ccc2c(c1)OCO2` (stereo unspecified), with 17.8%.
As for `O=C(O)c1ccc(COc2ccccc2C=C2C(=O)c3ccccc3C2=O)cc1`, the cell number change was 6.51%. The concentration at half-maximal activity (AC50) under setting [1] is 5.8 µM [rising, single point].
Consider `CSc1nsc(SCC(=O)Nc2ccc(C(=O)O)cc2)n1`, for which the cell number change was found to be 19.4%. For the same molecule, the AC50 under setting [2] was 0.13 µM [falling, full curve, poor fit].
`C=CCOc1c(Br)cc(/C=C2\SC(=Nc3ccccc3)NC2=O)cc1OC`: the cell number change is -56.6%. Also, the AC50 under setting [1] was 16.4 µM [falling, partial curve, poor fit]. For the same molecule, under setting [2], the concentration at half-maximal activity (AC50) is 0.517 µM [falling, single point].
Take `Cc1cccc2cc(COC(=O)C3CCCO3)c(=O)[nH]c12` (stereo unspecified): the cell number change amounted to 1.4%. Besides, under setting [2], the half-maximal activity concentration (AC50) was 0.731 µM [rising, full curve].
Take `CC(C)Oc1c(Cl)cc(CNC(C)(C)CO)cc1Cl`: the cell number change was -7.91%. Moreover, the concentration at half-maximal activity (AC50) under setting [2] is 3.26 µM [falling, partial curve, poor fit].
For `O=CNCCc1nc2ccccc2n1CCc1ccccc1`, the cell number change was 17.6%. Moreover, the concentration at half-maximal activity (AC50) under setting [2] is 0.651 µM [falling, single point].
Consider `O=C(O)c1ccccc1NC(=O)C1CCN(S(=O)(=O)c2cccc3nsnc23)CC1`, for which the cell number change stood at 2.69%.
Turning to `Cc1cc(C)c2cc3c(N)c(C(=O)N4CCc5ccccc5C4)sc3nc2c1`, under setting [1], the AC50 was 0.259 µM [rising, partial curve, poor fit].
For the molecule `O=C(CSc1n[nH]c(-c2ccccc2O)n1)NC1CCCCC1`, the cell number change was -29.5%. Also, under setting [2], the half-maximal activity concentration (AC50) is 29.1 µM [falling, partial curve, poor fit].
In the case of `COc1cc(Cl)c(CN2CCCC(CO)(Cc3cccc(Cl)c3)C2)cc1OC` (stereo unspecified), the cell number change is -20.9%. In addition, the AC50 under setting [2] is 20.6 µM [falling, single point].
Take `Cc1ccccc1CN1CCC(n2nccc2NC(=O)CCCc2ccccc2)CC1`: the cell number change was found to be 20.3%.
Consider `Cc1cc2c(N=NC(=O)C3CC3c3ccccc3)c(O)[nH]c2cc1Br` (stereo unspecified), for which the cell number change turned out to be 10.8%. The AC50 under setting [2] is 3.66 µM [rising, partial curve].
As for `Cc1ccccc1NC(=O)CNc1ccccc1C(=O)NCc1ccco1`, the cell number change turned out to be 14.3%.
As for `COc1ccc(C(=O)Nc2ccc(C3(C#N)CCCC3)cc2)cc1`, the concentration at half-maximal activity (AC50) under setting [2] is 5.17 µM [rising, single point].
